Results deposited as PubChem BioAssay AID493246 (Drosophila RNAi Screening Center, 2011)

Purpose: 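Identify essential fly genes by loss of cell viability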 (primary screen)
System: Drosophila Kc and S2R+ cells
Reagents: long dsRNA against Drosophila genes
Measured: 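Cell number per well after knock-down, printed as raw plate values; calls were based on per-plate z-scores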
Reading the numbers: Kc cell number and S2R+ cell number: higher = more cells remaining
Active means: 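Active when the per-plate z-score of cell number is 3 or more in the direction of fewer cells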
The deposit covers about 21,000 reagents; this is an unselected part of those with a known target gene and a result. Over the whole deposit, 429 (2%) were called active. 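Values are raw and not normalised between plates; calls rest on per-plate z-scores that were not deposited.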 Names joined by + are all predicted targets of the reagent. The record does not give: the amount of reagent, the time to read-out.

| predicted target | dsRNA | Kc cell number, rep 1 | Kc cell number, rep 2 | S2R+ cell number, rep 1 | S2R+ cell number, rep 2 | Call |
| --- | --- | --- | --- | --- | --- | --- |
| CG7065 | DRSC18420 | 5.38e5 | – | 8.33e5 | – | inactive |
| MFS14 (Major Facilitator Superfamily Transporter 14) | DRSC06524 | 1.31e6 | 1.50e6 | 1.09e6 | 1.13e6 | inactive |
| CG15117 | DRSC06539 | 1.25e6 | 1.29e6 | 9.89e5 | 1.02e6 | inactive |
| CG6178 | DRSC15984 | 1.56e6 | 1.56e6 | 1.15e6 | 1.25e6 | inactive |
| d4 | DRSC04881 | 1.49e6 | 1.63e6 | 1.06e6 | 1.01e6 | inactive |
| CG1637 | DRSC18865 | 1.33e6 | 1.58e6 | 1.08e6 | 1.12e6 | inactive |
| CG1637 | DRSC19748 | 5.46e5 | – | 7.90e5 | – | inactive |
| CG1637 | DRSC19749 | 1.51e6 | 1.48e6 | 1.02e6 | 1.16e6 | inactive |
| Gclm (Glutamate-cysteine ligase modifier subunit) | DRSC15677 | 1.62e6 | 1.66e6 | 1.40e6 | 1.40e6 | inactive |
| oaf (out at first) | DRSC00831 | 1.49e6 | 1.53e6 | 9.97e5 | 1.11e6 | inactive |
| CG34320 (retired record) | DRSC17682 | 1.11e6 | 1.39e6 | 1.05e6 | 1.11e6 | inactive |
| Slob (Slowpoke binding protein) | DRSC02296 | 1.62e6 | 1.64e6 | 1.20e6 | 1.32e6 | inactive |
| rsh (radish) | DRSC18966 | 1.12e6 | 1.42e6 | 1.13e6 | 1.20e6 | inactive |
| rsh (radish) | DRSC19816 | 8.87e5 | 9.18e5 | 5.47e5 | 6.20e5 | active |
| ssp6 (short spindle 6) | DRSC08791 | 1.63e6 | 1.74e6 | 1.05e6 | 1.23e6 | inactive |
| ssp6 (short spindle 6) | DRSC10677 | 1.54e6 | 1.50e6 | 8.07e5 | 9.38e5 | inactive |
| CG12860 | DRSC06200 | 1.48e6 | 1.54e6 | 1.23e6 | 1.32e6 | inactive |
| CG33255 (retired record) + hpRNA:CR32205 | DRSC09610 | 1.57e6 | 1.65e6 | 1.03e6 | 1.20e6 | inactive |
| CG33255 (retired record) + hpRNA:CR32205 | DRSC09611 | 1.47e6 | 1.55e6 | 1.11e6 | 1.33e6 | inactive |
| CG6959 | DRSC16151 | 1.55e6 | 1.59e6 | 1.36e6 | 1.42e6 | inactive |
| CG8541 | DRSC10989 | 1.20e6 | 1.31e6 | 1.13e6 | 1.10e6 | inactive |
| spab (space blanket) | DRSC07112 | 1.52e6 | 1.62e6 | 1.33e6 | 1.41e6 | inactive |
| CG7991 | DRSC08609 | 1.23e6 | 1.28e6 | 1.01e6 | 1.19e6 | inactive |
| dpr6 (defective proboscis extension response 6) | DRSC09005 | 9.53e5 | 9.70e5 | 6.97e5 | 8.47e5 | active |
| dpr6 (defective proboscis extension response 6) | DRSC10162 | 1.34e6 | 1.39e6 | 1.42e6 | 1.48e6 | inactive |
| eIF2alpha (eukaryotic translation initiation factor 2 subunit alpha) | DRSC20327 | 1.25e6 | 1.43e6 | 9.00e5 | 1.05e6 | inactive |
| CG3257 | DRSC04351 | 1.42e6 | 1.50e6 | 1.14e6 | 1.14e6 | inactive |
| CG1138 | DRSC12530 | 1.45e6 | 1.56e6 | 1.33e6 | 1.46e6 | inactive |
| CG34203 | DRSC03855 | 5.32e5 | – | 8.58e5 | – | inactive |
| gammaCOP (Coat Protein (coatomer) gamma) | DRSC16955 | 1.53e6 | 1.58e6 | 7.40e5 | 8.66e5 | inactive |
| CG11300 | DRSC04104 | 1.61e6 | 1.64e6 | 1.24e6 | 1.41e6 | inactive |
| CG4267 | DRSC00647 | 1.42e6 | 1.51e6 | 9.88e5 | 1.11e6 | inactive |
| TkR86C (Tachykinin-like receptor at 86C) | DRSC16880 | 1.48e6 | 1.54e6 | 1.35e6 | 1.48e6 | inactive |
| Osi11 (Osiris 11) | DRSC12282 | 1.57e6 | 1.78e6 | 1.28e6 | 1.36e6 | inactive |
| CG5693 | DRSC02878 | 1.56e6 | 1.55e6 | 1.23e6 | 1.45e6 | inactive |
| Upf1 (Upf1 RNA helicase) | DRSC19667 | 5.11e5 | – | 8.02e5 | – | inactive |
| CG13786 | DRSC02289 | 1.60e6 | 1.53e6 | 1.08e6 | 1.26e6 | inactive |
| clos (closca) | DRSC06240 | 1.61e6 | 1.66e6 | 1.30e6 | 1.44e6 | inactive |
| clos (closca) | DRSC06241 | 1.66e6 | 1.70e6 | 1.31e6 | 1.49e6 | inactive |
| clos (closca) | DRSC06778 | 1.60e6 | 1.65e6 | 1.32e6 | 1.49e6 | inactive |
| CycY (Cyclin Y) | DRSC02420 | 1.28e6 | 1.32e6 | 1.09e6 | 1.18e6 | inactive |
| CG15153 | DRSC02454 | 1.55e6 | 1.64e6 | 1.24e6 | 1.39e6 | inactive |
| TotZ (Turandot Z) | DRSC13450 | 1.38e6 | 1.36e6 | 9.88e5 | 1.03e6 | inactive |
| CG33655 | DRSC03858 | 6.37e5 | – | 8.58e5 | – | inactive |
| COX2 (retired record) | DRSC21276 | 1.57e6 | 1.60e6 | 1.18e6 | 1.27e6 | inactive |
| ste24a (prenyl protease type I) | DRSC07314 | 1.63e6 | 1.58e6 | 1.22e6 | 1.33e6 | inactive |
| Fpps (Farnesyl pyrophosphate synthase) | DRSC07429 | 1.23e6 | 1.35e6 | 1.07e6 | 9.28e5 | inactive |
| ari-2 (ariadne 2) | DRSC04672 | 1.63e6 | 1.64e6 | 1.28e6 | 8.06e5 | inactive |
| CG32719 | DRSC17525 | 1.38e6 | 1.63e6 | 1.18e6 | 1.23e6 | inactive |
| ringer (ringmaker) | DRSC10455 | 1.44e6 | 1.63e6 | 1.33e6 | 1.43e6 | inactive |
| CG31933 | DRSC00457 | 1.58e6 | 1.54e6 | 1.14e6 | 1.20e6 | inactive |
| Gr47a (Gustatory receptor 47a) | DRSC06221 | 1.51e6 | 1.51e6 | 1.30e6 | 1.37e6 | inactive |
| pns (pinstripe) | DRSC08598 | 1.40e6 | 1.45e6 | 1.03e6 | 1.38e6 | inactive |
| Cyp9h1 (Cytochrome P450 9h1) | DRSC07391 | 1.59e6 | 1.62e6 | 1.32e6 | 1.43e6 | inactive |
| Rabex-5 (Rabaptin-5-associated exchange factor for Rab5) | DRSC08628 | 1.39e6 | 1.47e6 | 1.16e6 | 1.13e6 | inactive |
| Pcp (Pupal cuticle protein) | DRSC03395 | 1.52e6 | 1.37e6 | 1.15e6 | 1.30e6 | inactive |
| phr (photorepair) | DRSC07662 | 1.56e6 | 1.59e6 | 1.25e6 | 1.42e6 | inactive |
| tomboy40 | DRSC04918 | 1.39e6 | 1.40e6 | 1.14e6 | 1.21e6 | inactive |
| CG7582 | DRSC16261 | 1.69e6 | 1.73e6 | 1.02e6 | 1.12e6 | inactive |

Active calls, of those listed so far:
| predicted target | dsRNA | Kc cell number, rep 1 | Kc cell number, rep 2 | S2R+ cell number, rep 1 | S2R+ cell number, rep 2 | Call |
| --- | --- | --- | --- | --- | --- | --- |
| rsh (radish) | DRSC19816 | 8.87e5 | 9.18e5 | 5.47e5 | 6.20e5 | active |
| dpr6 (defective proboscis extension response 6) | DRSC09005 | 9.53e5 | 9.70e5 | 6.97e5 | 8.47e5 | active |
